PubChem BioAssay AID1259308, NCATS – 2017
The deposit covers about 59,000 reagents; shown is a part drawn at random. About 1,510 of all reagents (2.6%) were called active. 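Calls use total luciferase alone and ignore viability, so some active siRNAs may act by altering cell number.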 The numbers tell different reagents against one gene apart. Not all columns of the deposit are shown.

Purpose: 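Genes whose loss raises luciferase production in HEK293 cells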 (primary screen)
System: human HEK293 embryonic kidney cells stably expressing firefly luciferase (HEK-CMV-Luc2-Hygro)
Knock-down reagent: single siRNA against human genes, 0.8 pmol siRNA per well
Time to read-out: 72 h
Read-out: 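Reporter luminescence and viable-cell signal on separate replicate plates, given as percent of non-targeting control and median/MAD z-scores, plus per-cell luciferase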
Direction: total luciferase, z-score and total luciferase, % of control: higher = more reporter protein produced
Active means: 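Active when the median/MAD z-score for overall luciferase is greater than 3; a gene was taken forward for validation with new siRNAs if at least two of its three siRNAs passed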
Calls: active = raised luciferase; inactive = no rise

| total luciferase, z-score | total luciferase, % of control | Call | gene symbol | reagent |
| --- | --- | --- | --- | --- |
| -1.55 | 51.1 | inactive | CD300LB | 1 |
| -0.131 | 79.3 | inactive | CD300LB | 2 |
| -0.511 | 71.7 | inactive | CD300LB | 3 |
| -0.08 | 80.3 | inactive | ELMO1 | 1 |
| -0.132 | 79.3 | inactive | ELMO1 | 2 |
| -1.51 | 51.9 | inactive | ELMO1 | 3 |
| -1.15 | 59 | inactive | CLEC19A | 1 |
| 2.39 | 129 | inactive | CLEC19A | 2 |
| 1.65 | 115 | inactive | CLEC19A | 3 |
| 0.0984 | 83.8 | inactive | CPT1A | 1 |
| 0.789 | 97.6 | inactive | CPT1A | 2 |
| 0.209 | 86 | inactive | CPT1A | 3 |
| 1.33 | 108 | inactive | PNPLA4 | 1 |
| -0.126 | 79.4 | inactive | PNPLA4 | 2 |
| 0.0737 | 83.4 | inactive | PNPLA4 | 3 |
| 0.0704 | 83.3 | inactive | FBXO33 | 1 |
| -0.726 | 67.4 | inactive | FBXO33 | 2 |
| -0.651 | 68.9 | inactive | FBXO33 | 3 |
| 0.517 | 92.2 | inactive | CRNN | 1 |
| 2.95 | 141 | inactive | CRNN | 2 |
| 1.42 | 110 | inactive | CRNN | 3 |
| 0.222 | 86.3 | inactive | HSPA1B | 1 |
| -0.591 | 70.1 | inactive | HSPA1B | 2 |
| 3.19 | 145 | active | HSPA1B | 3 |
